The text below walks through data of PMC7333360.

For assay [1], the target named is T1, TGF-β activated kinase-1 binding protein-1 (TAB1), wild type, mouse (mouse (endogenous in brain tissue)) (UniProt Q8CF89).
T1 sequence (chain, O-GlcNAc at Ser393 (TAB1 was found glycosylated in WT animals)): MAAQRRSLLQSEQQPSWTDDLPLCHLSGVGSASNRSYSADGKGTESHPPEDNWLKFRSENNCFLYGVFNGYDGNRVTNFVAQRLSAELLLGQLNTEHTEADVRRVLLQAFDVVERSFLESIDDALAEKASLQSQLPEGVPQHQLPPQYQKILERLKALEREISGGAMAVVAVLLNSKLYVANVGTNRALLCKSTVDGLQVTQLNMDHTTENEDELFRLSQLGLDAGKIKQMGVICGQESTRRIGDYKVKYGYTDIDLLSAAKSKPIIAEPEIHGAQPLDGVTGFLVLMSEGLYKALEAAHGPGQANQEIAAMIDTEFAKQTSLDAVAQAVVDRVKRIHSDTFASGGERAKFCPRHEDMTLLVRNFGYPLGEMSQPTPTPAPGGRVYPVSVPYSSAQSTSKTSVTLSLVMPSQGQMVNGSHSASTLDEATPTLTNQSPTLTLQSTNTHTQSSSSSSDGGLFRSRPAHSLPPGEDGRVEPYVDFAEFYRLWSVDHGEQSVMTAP
The experiment in a line: co-IP; endogenous TAB1 immunoprecipitated from 1 mg cleared mouse brain lysate (1 % Triton-X100 lysis buffer with 10 μM GlcNAcstatin G) with 10 μg anti-TAB1 on Dynabeads Protein G, 2 h at 4 °C; washes with lysis buffer containing 0.25 M NaCl; blotted with anti-TAK1 and anti-TAB1; IgG isotype ….

Assay [2] has as its target T2, TAB1 S393A, mouse (from homozygous Tab1 S393A knock-in mice) (mouse (endogenous in brain tissue)) (UniProt Q8CF89).
T2 sequence: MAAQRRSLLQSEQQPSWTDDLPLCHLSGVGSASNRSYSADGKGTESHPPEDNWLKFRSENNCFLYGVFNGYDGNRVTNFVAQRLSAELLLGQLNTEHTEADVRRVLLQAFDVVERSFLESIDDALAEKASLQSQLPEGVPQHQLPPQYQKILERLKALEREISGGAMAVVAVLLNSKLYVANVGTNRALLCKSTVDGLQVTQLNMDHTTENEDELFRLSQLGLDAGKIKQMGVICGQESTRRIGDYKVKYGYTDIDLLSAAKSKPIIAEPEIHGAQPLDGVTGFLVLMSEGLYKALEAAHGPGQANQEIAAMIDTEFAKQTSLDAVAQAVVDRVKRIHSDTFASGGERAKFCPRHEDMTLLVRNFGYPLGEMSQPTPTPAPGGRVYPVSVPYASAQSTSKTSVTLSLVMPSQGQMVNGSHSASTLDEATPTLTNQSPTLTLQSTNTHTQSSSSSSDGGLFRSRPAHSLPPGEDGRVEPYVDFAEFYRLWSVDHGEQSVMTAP
The description is as above.

Results are given in words; binding and its absence hold for the method and conditions named. In cells and extracts the contact can be indirect. Some entries that bind do so weakly or less than the wild type.

B1: TGF-β activated kinase-1 (TAK1), mouse (protein, UniProt Q62073 1-579)
chain: MSTASAASSSSSSSASEMIEAPSQVLNFEEIDYKEIEVEEVVGRGAFGVVCKAKWRAKDVAIKQIESESERKAFIVELRQLSRVNHPNIVKLYGACLNPVCLVMEYAEGGSLYNVLHGAEPLPYYTAAHAMSWCLQCSQGVAYLHSMQPKALIHRDLKPPNLLLVAGGTVLKICDFGTACDIQTHMTNNKGSAAWMAPEVFEGSNYSEKCDVFSWGIILWEVITRRKPFDEIGGPAFRIMWAVHNGTRPPLIKNLPKPIESLMTRCWSKDPSQRPSMEEIVKIMTHLMRYFPGADEPLQYPCQYSDEGQSNSATSTGSFMDIASTNTSNKSDTNMEQVPATNDTIKRLESKLLKNQAKQQSESGRLSLGASRGSSVESLPPTSEGKRMSADMSEIEARIVATAGNGQPRRRSIQDLTVTGTEPGQVSSRSSSPSVRMITTSGPTSEKPARSHPWTPDDSTDTNGSDNSIPMAYLTLDHQLQPLAPCPNSKESMAVFEQHCKMAQEYMKVQTEIALLLQRKQELVAELDQDEKDQQNTSRLVQEHKKLLDENKSLSTYYQQCKKQLEVIRSQQQKRQGTS
Regarding B1, the binding result in assay [1] and in assay [2] was “binds” throughout.
